Data taken from US20210236668A1, “COMPOSITIONS FOR RADIOTHERAPY AND USES THEREOF” (The Trustees of Columbia University in the City of New York, priority 2018, published 2021).
“And” between values parts separate entries of the source, which are not always exact repeats. Equal values may be shown once.

Tests used:
porcine bladder mucosa = assay: Attachment of HRP-labeled avidin / HRP-labeled Biotin / Indium-111-DOTA-biotin to bladder mucosa, microtitre plate bladder platform; design: species or system pig
[1] = Avidin saturation of talc and release on washing, Pierce 660 nm total protein assay of supernatants; format: binding; conditions: for Saturation of AVIDIN to the combine surface of 100 mg talc / AVIDIN in supernatant after incubation / Avidin binded to talc / Amount of Avidin removed by wash: Ex 3; for Avidin binded with talc / Avidin in supernatant / Avidin per talc surface: Ex 4
[2] = HRP Avidin (hot) / cold Avidin binding to talc in 96 well plate, TMB absorbance 450 nm; conditions: Ex 12
[3] = Biotin Rhodamine binding to talc after washing with buffers of different pH, fluorescent assay 496 nm/520 nm
[4] = 100 mg talc, 198.4 μg Avidin in reaction
[5] = 100 mg talc, 1650.3 μg Avidin in reaction
[6] = 100 mg talc, Avidin added 330 μg/ml
[7] = 100 mg talc, Avidin added 3300 μg/ml
[8] = 100 mg talc, Avidin added 6600 μg/ml
[9] = 100 mg talc, Avidin added 19800 μg/ml

Avidin: Avidin from egg white (Sigma A9275), 66 kDa biotin-binding protein; unlabeled = cold Avidin
binding to porcine bladder mucosa (porcine bladder mucosa): bind tightly | pH at which binding to porcine bladder mucosa is best (porcine bladder mucosa; protein free saline): ≤ 8.0 | Saturation of AVIDIN to the combine surface of 100 mg talc ([1]; 198.4 μg Avidin added): 2.48 μg/cm^2 | Saturation of AVIDIN to the combine surface of 100 mg talc ([1]; 1650.3 μg Avidin added): 6.25 μg/cm^2 | AVIDIN in supernatant after incubation [1, 4]: 13.7 μg/0.5 ml | Avidin binded to talc [1, 4]: 184.7 µg | AVIDIN in supernatant after incubation ([1]; 100 mg talc, 198.4 μg Avidin in reaction (0.5 ml)): 27.4 µg/mL | AVIDIN in supernatant after incubation [1, 5]: 1185 μg/0.5 ml | Avidin binded to talc [1, 5]: 465.3 µg | AVIDIN in supernatant after incubation ([1]; 100 mg talc, 1650.3 μg Avidin in reaction (0.5 ml)): 2370 µg/mL | Amount of Avidin removed by wash ([1]; 1st wash with EDTA, 198.4 μg Avidin): 15.8 µg/mL | Amount of Avidin removed by wash ([1]; 1st wash with EDTA, 1650.3 μg Avidin): 13.2 µg/mL | Amount of Avidin removed by wash ([1]; 1st wash with PBS, 198.4 μg Avidin, 100 mg talc): 31.4 µg/mL | Amount of Avidin removed by wash ([1]; 1st wash with PBS, 1650.3 μg Avidin, 100 mg talc): 307.4 µg/mL | Amount of Avidin removed by wash ([1]; 2nd wash with EDTA, 198.4 μg Avidin): 19.8 µg/mL | Amount of Avidin removed by wash ([1]; 2nd wash with EDTA, 1650.3 μg Avidin): 12.3 µg/mL | Amount of Avidin removed by wash ([1]; 2nd wash with PBS, 198.4 μg Avidin): 27.6 µg/mL | Amount of Avidin removed by wash ([1]; 2nd wash with PBS, 1650.3 μg Avidin): 67.3 µg/mL | Amount of Avidin removed by wash ([1]; 3rd wash with EDTA, 198.4 μg Avidin): 13 µg/mL | Amount of Avidin removed by wash ([1]; 3rd wash with EDTA, 1650.3 μg Avidin): 13.2 µg/mL | Amount of Avidin removed by wash ([1]; 3rd wash with PBS, 198.4 μg Avidin): 32.7 µg/mL | Amount of Avidin removed by wash ([1]; 3rd wash with PBS, 1650.3 μg Avidin): 40.3 µg/mL | Avidin binded with talc [1, 6]: 110.4 µg/mL | Avidin in supernatant [1, 6]: 219.6 μg, ml | Avidin per talc surface [1, 6]: 1.5 μg/cm2 | Avidin binded with talc [1, 7]: 2452.7 µg/mL | Avidin in supernatant [1, 7]: 847.3 μg, ml | Avidin per talc surface [1, 7]: 33.0 μg/cm2 and 33 μg/cm2 | Avidin binded with talc [1, 8]: 4631.5 µg/mL | Avidin in supernatant [1, 8]: 1968.5 μg, ml | Avidin per talc surface [1, 8]: 62.3 μg/cm2 | Avidin binded with talc [1, 9]: 12166.7 µg/mL | Avidin in supernatant [1, 9]: 7633.3 μg, ml | Avidin per talc surface [1, 9]: 163.5 μg/cm2 | Avidin binded with talc ([1]; 100 mg talc, Avidin added […]): 7952.7 µg/mL | Avidin in supernatant ([1]; 100 mg talc, Avidin added […]): 5247.3 μg, ml | Avidin per talc surface ([1]; 100 mg talc, Avidin added […]): 106.9 μg/cm2 | Efficiency of binding to talc ([2]; 1 mg talc, Cold Avidin only 100 ug/mL): 0.31 OD | Efficiency of binding to talc ([2]; 1 mg talc, Cold Avidin only 200 ug/mL): 0.27 OD | Efficiency of binding to talc ([2]; 1 mg talc, Cold Avidin only 400 ug/mL): 0.3 OD | Efficiency of binding to talc ([2]; 1 mg talc, Cold Avidin only 4 mg/mL): 0.33 OD | Efficiency of binding to talc ([2]; 5 mg talc, Cold Avidin only 100 ug/mL): 1.38 OD | Efficiency of binding to talc ([2]; 5 mg talc, Cold Avidin only 200 ug/mL): 1.4 OD | Efficiency of binding to talc ([2]; 5 mg talc, Cold Avidin only 400 ug/mL): 1.01 OD | Efficiency of binding to talc ([2]; 5 mg talc, Cold Avidin only 4 mg/mL): 1.23 OD

Biotin Rhodamine 110
effect of pH of washing buffers on binding to talc ([3]; pH 4.8-8.0): pH does not affect the binding | Average fluorescent signal (RHODAMINE 110) ([3]; talc/Biotin washed with Citrate buffer, pH 4.8): 14027.61 | Average fluorescent signal (RHODAMINE 110) ([3]; talc/Biotin washed with PBS): 13760.41 | Average fluorescent signal (RHODAMINE 110) ([3]; talc/Biotin washed with TBS, pH 8.0): 12868.68
